The source of these data is PubChem BioAssay AID493014 (National Center for Advancing Translational Sciences (NCATS), 2011).

The list shows a part of the results. These are further read-outs of the screen, such as a control signal, another cell line or another target. No call is given for them. The list favours compounds with an active or inconclusive main result. The note in brackets gives the kind of curve behind each potency; many fits are weak.

The assay can be described thus: qHTS Assay to Find Inhibitors of Chronic Active B-Cell Receptor Signaling. The settings on record: ABC-DLBCL IkBa-CBG/CBR reporter, luminescence ratio (green luciferase fused to IkBa over red control in TMD8 lymphoma cells), 4 h. The method in brief:
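Concentration-response series (up to 46 uM) were applied to TMD8 dual-reporter cells for 4 h at 37C with doxycycline. Green/red ratio, after filter-overlap correction, defined %Activity; red signal alone was normalised to basal cells and zero luminescence.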

The mark [1] stands for this setting: measured here: CBR red luminescence, cell number.
[2] abbreviates: measured here: IkBa-CBG green luminescence.

As to `O=C(NC(Cc1ccccc1)C(=O)O)C1CCCCC1` (configuration not stated), the AC50 under setting [1] was 0.184 µM [rising, full curve].

In the case of `CC(C)CC(=O)Nc1sc2c(c1C(=O)O)CCCCC2`, the AC50 under setting [1] was 12.6 µM [falling, partial curve].

On to `CCOC(=O)N1CCC(NCCNC(=O)c2cccs2)CC1`, for which the AC50 runs as follows: under setting [1], 2.59 µM [falling, partial curve, poor fit]; under setting [2], 1.64 µM [rising, partial curve, poor fit].

Take `CCOc1ccccc1NC(=O)c1ccc(F)c(S(=O)(=O)NCc2ccc3c(c2)OCO3)c1`: the AC50 under setting [1] was 0.631 µM [rising, full curve, poor fit].

For `CN(C)c1ccc(Sc2nnc(NC(=O)Nc3ccc(Cl)cc3Cl)s2)cc1`, the AC50 under setting [1] is 14.6 µM [rising, partial curve].

As for `Cc1ccc(S(=O)(=O)N2CCN(C(=O)CC(C)n3cncn3)CC2)cc1C` (configuration not stated), under setting [1], the AC50 is 6.31 µM [falling, partial curve, poor fit].

As for `CSc1nsc(SCCN2C(=O)c3ccccc3C2=O)n1`, the AC50 under setting [1] is 0.082 µM [rising, full curve, poor fit].

For the molecule `Nc1c(C(=O)NCc2ccco2)c2nc3ccccc3nc2n1CCc1ccc(F)cc1`, the AC50 under setting [1] was 2.59 µM [falling, full curve, poor fit].

In the case of `COc1ccccc1N1CCN(CC(=O)c2ccc3ccn(C(C)=O)c3c2)CC1`, the AC50 under setting [1] was 0.82 µM [rising, full curve, poor fit].

Turning to `COc1cccc(C(=O)Nc2ccccc2OC(F)(F)F)c1`, the AC50 under setting [1] was 35.5 µM [rising, partial curve, poor fit].

As to `CC1=NNC(=O)C1C(c1ccccc1)C1C(=O)NN=C1C` (configuration not stated), the AC50 runs as follows: under setting [1], 4.47 µM [falling, partial curve, poor fit]; under setting [2], 35.5 µM [falling, single point].

As for `Cc1cc(=O)[nH]c(SCC(=O)Nc2cccc3ccccc23)c1C#N`, the AC50 under setting [1] is 20.6 µM [falling, partial curve, poor fit].

Consider `CCCOc1ccc(C(=O)Nc2ccc(S(=O)(=O)N3C[C@@H]4C[C@@H](C3)c3cccc(=O)n3C4)cc2)cc1`, for which, under setting [1], the AC50 is 2.31 µM [falling, partial curve, poor fit].

In the case of `C=CCn1c2ccccc2c2nnc(SCCN3CCOCC3)nc21`, the AC50 under setting [1] is 10 µM [falling, partial curve, poor fit].

As to `CCOC(=O)c1ccc(Nc2ccc([N+](=O)[O-])cn2)cc1`, under setting [1], the AC50 was 4.11 µM [rising, full curve, poor fit].

Regarding `N/C(=N\NC(=O)c1cccs1)c1cc2cc(Cl)ccc2oc1=O`, under setting [1], the AC50 is 35.5 µM [falling, single point].

Take `O=C1OC(c2ccc(F)cc2)=N/C1=C\C=C/c1ccccc1`: the AC50 under setting [1] is 12.6 µM [falling, single point].

For `CCOc1ccc(/C=C/C(=O)c2c(O)c3ccccc3oc2=O)cc1`, under setting [1], the half-maximal activity concentration (AC50) is 0.631 µM [falling, full curve, poor fit].

Regarding `O=C(NCC(c1cccs1)N1CCOCC1)c1cc(-c2ccccn2)nc2ccccc12` (configuration not stated), the AC50 under setting [1] is 2.51 µM [rising, partial curve, poor fit].

For the molecule `COc1ccc(/C=C/C(=O)C(C)(C)C)cc1OC`, under setting [1], the AC50 was 1.12 µM [rising, partial curve, poor fit].

Consider `CCN1CCN(C(=O)c2ccc(CS(=O)(=O)Cc3ccccc3C)o2)CC1`, for which the AC50 under setting [1] is 6.31 µM [rising, partial curve, poor fit].

Take `COc1ccccc1-n1cnc2cc(NCc3cccs3)ccc21`: the AC50 was 5.8 µM [falling, single point] under setting [1] and 6.51 µM [falling, partial curve] under setting [2].

For the molecule `COc1ccc(NC(=O)c2cccc([N+](=O)[O-])c2)cc1`, the AC50 under setting [1] is 2.51 µM [falling, full curve, poor fit].

Regarding `COc1ccc(C2C(C#N)=C(N)Oc3n[nH]c(C)c32)cc1CSc1ccccn1` (configuration not stated), the AC50 under setting [1] is 0.517 µM [falling, partial curve, poor fit].

On to `Cc1[nH]c2ccccc2c1SCCNC(=O)c1ccc(S(=O)(=O)N2CCCC2)cc1`, for which the AC50 under setting [1] is 16.4 µM [falling, single point].

With `Cc1ccc(S(=O)(=O)CCC(=O)Nc2ccc(F)cc2)cc1`, under setting [1], the AC50 was 14.1 µM [rising, partial curve, poor fit].

Regarding `Cc1ccc([N+](=O)[O-])cc1NC(=O)C[n+]1ccccc1`, under setting [1], the half-maximal activity concentration (AC50) is 10 µM [rising, partial curve, poor fit].

As to `Cc1cc(/C=N\NC(=O)c2cccs2)c(C)n1-c1ccc2ncccc2c1`, the half-maximal activity concentration (AC50) under setting [1] is 35.5 µM [falling, single point].

`Cn1c(-c2ccc3c(c2)OCO3)cnc1NCc1ccccc1Cl`: under setting [1], the AC50 was 7.94 µM [falling, partial curve, poor fit].

For `CC1=NN(C(=O)c2ccccc2Br)C(O)(c2ccc(Cl)cc2)C1` (configuration not stated), the AC50 under setting [1] is 6.31 µM [falling, full curve].

Consider `CCc1ccc(C(=O)NN(C(=O)c2ccc(CC)cc2)C(C)(C)C)cc1`, for which, under setting [1], the AC50 was 2.59 µM [rising, partial curve, poor fit].

As to `O=[N+]([O-])c1cccc(-c2nc(-c3ccncc3)no2)c1`, the AC50 under setting [1] is 4.47 µM [rising, full curve, poor fit].

On to `COc1cccc(N2CCN(C(=O)c3cc4c(s3)CCCCC4)CC2)c1`, for which the AC50 under setting [1] was 5.17 µM [falling, full curve, poor fit].

With `O=C1c2ccccc2NC(c2ccc(Br)o2)N1O` (configuration not stated), the AC50 under setting [1] was 16.4 µM [falling, single point].

Consider `O=C(COc1ccccc1)Nc1nnc(-c2ccccc2)o1`, for which, under setting [1], the AC50 is 16.4 µM [falling, single point].

As to `Cc1cc2oc(C(=O)Nc3ccc(S(=O)(=O)Nc4onc(C)c4C)cc3)cc(=O)c2cc1Cl`, under setting [1], the AC50 is 1.26 µM [falling, full curve].

Consider `CSc1nc(N)c(C(=O)NC2CCCCC2)s1`, for which the AC50 under setting [1] was 7.94 µM [falling, partial curve].

For the molecule `Cc1c(C(=O)Oc2cccc3cccnc23)cccc1[N+](=O)[O-]`, the AC50 under setting [1] is 17.8 µM [rising, single point] and the AC50 under setting [2] was 28.2 µM [falling, single point].

As to `Nc1ccc(C(=O)N2CCN(S(=O)(=O)c3ccc4c(c3)OCCO4)CC2)cc1[N+](=O)[O-]`, under setting [1], the AC50 was 5.62 µM [falling, partial curve].

With `CC(=O)c1cccc(CN2CCN(C(C)C)C(CCO)C2)c1` (configuration not stated), the AC50 under setting [1] is 0.562 µM [rising, full curve, poor fit].

For the molecule `CCC(C)(C(=O)NC1CCCCC1)N(CC1CCCO1)C(=O)CNC(=O)c1ccccc1` (configuration not stated), under setting [1], the AC50 is 20.6 µM [falling, single point].

For the molecule `COc1ccc(NCC(=O)n2c(C)c(C)c3ccccc32)cc1`, the AC50 runs as follows: under setting [1], 10 µM [falling, partial curve, poor fit]; under setting [2], 35.5 µM [falling, partial curve, poor fit].

Take `CCOC(=O)c1sc(NC(=O)c2ccncc2)c(C#N)c1C`: the AC50 under setting [1] is 2.31 µM [rising, partial curve, poor fit].

On to `CCOc1ccc2cc(/C=C/C(=O)c3ccco3)c(Cl)nc2c1`, for which the AC50 under setting [1] was 1.84 µM [rising, full curve, poor fit].

Take `COc1cccc(-c2cc(C(F)(F)F)nc(N3CCCCC3)n2)c1`: the AC50 under setting [1] is 0.224 µM [rising, full curve, poor fit].

As for `Cn1ncc2c(O/N=C(\N)c3ccc(C(F)(F)F)cc3)ncnc21`, the AC50 under setting [1] is 5.01 µM [rising, partial curve, poor fit].

`Cc1cccc(NC(=S)NNC(=O)c2ccc(O)cc2O)c1C`: under setting [1], the AC50 was 11.2 µM [falling, partial curve].

Consider `CC[C@]12c3[nH]c4cc(CCC(=O)N(C)C)ccc4c3CCN1C(=O)[C@@H](CC(=O)NC/C=C(\C)CCC=C(C)C)C[C@@H]2C(=O)N1CCN(C(=O)c2ccco2)CC1`, for which the AC50 is, setting by setting: under setting [1], 6.51 µM [rising, single point]; under setting [2], 8.2 µM [falling, partial curve].

For the molecule `COc1ccc(-c2csc(N(C)C(=O)c3ccco3)n2)cc1`, under setting [1], the AC50 was 3.98 µM [rising, full curve].

Turning to `CCn1c(SCC(=O)Nc2cccc(NC(=O)c3ccco3)c2)nnc1-c1cccs1`, the AC50 under setting [1] was 2.91 µM [falling, partial curve].

For `CCOc1ccc(NC(=O)CCc2nnc3ccc(N4CCC5(CC4)OCCO5)nn23)cc1`, the AC50 under setting [1] is 35.5 µM [rising, single point].

Regarding `CCn1c(COc2ccc(OC)cc2)nc2ccccc21`, the AC50 under setting [1] was 3.98 µM [rising, partial curve, poor fit].

As to `O=C(CCCN1C(=O)c2ccccc2C1=O)Nc1ccccc1`, the AC50 under setting [1] was 12.6 µM [rising, partial curve].

Turning to `Cc1ccc(-c2nnc(Nc3ccc(CC(N)=O)cc3)c3ccccc23)cc1S(=O)(=O)NCC1CCCO1` (configuration not stated), the AC50 under setting [1] is 12.6 µM [falling, partial curve].

Regarding `Oc1ccc(Nc2nc(-c3ccccc3O)nc3ccccc23)cc1`, under setting [1], the AC50 was 35.5 µM [falling, single point].

With `CCc1nc2ccccc2c(C(=O)OCC(=O)Nc2cccc(S(=O)(=O)NC3=NCCCCC3)c2)c1C`, the AC50 is 35.5 µM [falling, single point] under setting [1] and 35.5 µM [rising, partial curve, poor fit] under setting [2].

For `O=C1C(=O)N(c2ccccc2)c2ccccc21`, the AC50 under setting [1] is 29.1 µM [rising, single point].

Take `CCOc1ccc(N(C)S(=O)(=O)c2ccc(C)c(C(=O)Nc3nnc(C4CC4)s3)c2)cc1`: the AC50 under setting [1] is 0.013 µM [rising, full curve, poor fit].

As for `CC(C)(C)CC(=O)O/N=C(\N)c1ccccn1`, under setting [1], the AC50 was 16.4 µM [falling, single point].

`O=C(Nc1ccc(N2CCOCC2)cc1)c1cccnc1`: under setting [1], the AC50 was 14.6 µM [falling, partial curve, poor fit].
